According to ChEMBL document CHEMBL5260805, “Therapeutic journey of 2,4-thiazolidinediones as a versatile scaffold: An insight into structure activity relationship” (Eur J Med Chem, 2017):
≈ marks a conversion by molar mass, not a printed value.

System: Klebsiella pneumoniae
Assay: Antibacterial activity against Klebsiella pneumoniae
Format: functional

SMILES: O=C(O)c1cn(C2CC2)c2cc(N3CCNCC3)c(F)cc2c1=O [CIPROFLOXACIN]
- MIC: 0.78 µg/mL (≈ 2.35 µM)
